No constants are given. Whether binding was seen depends on the method and setting. Some binding calls cover weakened binding; strength is not graded here. Where a sequence is shown, tags or fusion partners need not be part of it.
T1: CAP-D3 (human condensin II subunit), two-hybrid fusion (human) (UniProt P42695)
T1 sequence: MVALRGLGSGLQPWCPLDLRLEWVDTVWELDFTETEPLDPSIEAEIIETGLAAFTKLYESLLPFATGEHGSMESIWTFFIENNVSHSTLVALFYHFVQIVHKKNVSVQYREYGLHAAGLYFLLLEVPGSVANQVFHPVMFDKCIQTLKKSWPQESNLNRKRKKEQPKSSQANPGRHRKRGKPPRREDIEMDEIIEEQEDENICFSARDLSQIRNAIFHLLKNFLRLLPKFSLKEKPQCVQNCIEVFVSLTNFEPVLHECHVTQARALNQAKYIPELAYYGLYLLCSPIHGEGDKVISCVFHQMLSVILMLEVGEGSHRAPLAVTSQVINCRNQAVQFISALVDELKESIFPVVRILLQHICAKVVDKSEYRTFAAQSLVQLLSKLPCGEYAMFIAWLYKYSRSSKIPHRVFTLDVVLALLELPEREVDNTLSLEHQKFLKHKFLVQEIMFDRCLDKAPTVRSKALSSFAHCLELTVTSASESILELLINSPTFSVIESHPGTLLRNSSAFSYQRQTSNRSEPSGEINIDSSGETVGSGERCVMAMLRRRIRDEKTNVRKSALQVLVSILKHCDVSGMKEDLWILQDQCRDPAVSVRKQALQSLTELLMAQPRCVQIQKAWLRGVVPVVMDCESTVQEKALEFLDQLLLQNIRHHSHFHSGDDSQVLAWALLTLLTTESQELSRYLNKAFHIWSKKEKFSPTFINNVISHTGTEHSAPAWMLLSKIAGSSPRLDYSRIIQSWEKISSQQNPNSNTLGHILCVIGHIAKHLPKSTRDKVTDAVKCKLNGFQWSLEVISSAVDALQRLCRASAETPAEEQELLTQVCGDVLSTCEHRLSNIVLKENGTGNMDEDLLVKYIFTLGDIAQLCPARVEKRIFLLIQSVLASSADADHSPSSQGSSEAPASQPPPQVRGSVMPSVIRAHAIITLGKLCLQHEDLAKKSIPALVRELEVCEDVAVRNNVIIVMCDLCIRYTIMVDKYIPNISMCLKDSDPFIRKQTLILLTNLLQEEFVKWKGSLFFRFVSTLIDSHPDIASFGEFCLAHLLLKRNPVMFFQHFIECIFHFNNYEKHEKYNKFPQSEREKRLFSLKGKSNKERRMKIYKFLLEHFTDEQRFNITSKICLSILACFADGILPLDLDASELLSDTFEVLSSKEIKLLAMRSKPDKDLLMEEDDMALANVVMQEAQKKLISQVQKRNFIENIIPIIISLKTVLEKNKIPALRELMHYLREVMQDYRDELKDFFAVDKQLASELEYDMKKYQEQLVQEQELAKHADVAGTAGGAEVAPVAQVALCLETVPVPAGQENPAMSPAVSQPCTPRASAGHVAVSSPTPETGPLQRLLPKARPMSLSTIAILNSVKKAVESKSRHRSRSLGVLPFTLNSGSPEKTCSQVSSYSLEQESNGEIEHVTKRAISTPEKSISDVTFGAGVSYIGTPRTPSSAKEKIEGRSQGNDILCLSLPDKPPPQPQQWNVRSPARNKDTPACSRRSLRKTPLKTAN

Amino acid sequences for entries named in this document (tags omitted).
UniProt Q15021: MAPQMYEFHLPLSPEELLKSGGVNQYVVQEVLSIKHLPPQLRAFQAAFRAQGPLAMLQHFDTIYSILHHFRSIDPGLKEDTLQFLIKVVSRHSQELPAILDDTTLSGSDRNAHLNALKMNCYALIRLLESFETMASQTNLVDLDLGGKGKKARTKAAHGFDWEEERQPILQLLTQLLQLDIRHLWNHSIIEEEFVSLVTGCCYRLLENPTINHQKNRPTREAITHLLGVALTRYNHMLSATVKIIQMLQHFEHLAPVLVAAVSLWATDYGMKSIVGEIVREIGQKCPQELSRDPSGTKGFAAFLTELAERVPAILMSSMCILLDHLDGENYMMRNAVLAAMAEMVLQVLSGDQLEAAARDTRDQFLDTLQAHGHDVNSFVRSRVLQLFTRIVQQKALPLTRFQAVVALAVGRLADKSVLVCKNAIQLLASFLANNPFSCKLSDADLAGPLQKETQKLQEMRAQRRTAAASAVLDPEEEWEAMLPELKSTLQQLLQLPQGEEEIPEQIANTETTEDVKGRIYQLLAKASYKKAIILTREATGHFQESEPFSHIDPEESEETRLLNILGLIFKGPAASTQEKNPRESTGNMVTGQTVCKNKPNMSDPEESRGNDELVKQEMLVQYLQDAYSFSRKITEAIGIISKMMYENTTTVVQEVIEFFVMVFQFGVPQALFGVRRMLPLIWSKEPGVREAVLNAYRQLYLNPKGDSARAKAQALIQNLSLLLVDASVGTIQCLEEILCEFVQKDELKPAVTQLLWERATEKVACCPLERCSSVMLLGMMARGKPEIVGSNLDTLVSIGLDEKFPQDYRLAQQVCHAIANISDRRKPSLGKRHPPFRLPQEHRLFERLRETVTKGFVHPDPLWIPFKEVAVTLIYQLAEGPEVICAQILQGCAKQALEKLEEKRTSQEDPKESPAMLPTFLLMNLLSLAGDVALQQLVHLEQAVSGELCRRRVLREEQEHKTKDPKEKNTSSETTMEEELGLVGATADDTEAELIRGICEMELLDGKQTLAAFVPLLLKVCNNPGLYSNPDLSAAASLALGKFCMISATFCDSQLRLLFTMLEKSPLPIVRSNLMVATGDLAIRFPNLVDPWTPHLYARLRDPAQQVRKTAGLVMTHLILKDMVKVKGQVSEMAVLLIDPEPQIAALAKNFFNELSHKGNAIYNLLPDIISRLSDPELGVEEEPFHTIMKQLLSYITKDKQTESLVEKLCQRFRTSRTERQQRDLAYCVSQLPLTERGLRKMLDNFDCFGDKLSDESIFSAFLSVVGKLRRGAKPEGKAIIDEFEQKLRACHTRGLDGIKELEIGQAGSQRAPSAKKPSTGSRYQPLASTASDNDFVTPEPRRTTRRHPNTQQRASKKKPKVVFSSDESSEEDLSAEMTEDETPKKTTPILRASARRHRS

T2: GAL4-BD-Cnd1 (Cnd1 condensin subunit, wild type, fused to GAL4-BD) (Schizosaccharomyces pombe (fission yeast)) (UniProt O94679)
T2 sequence: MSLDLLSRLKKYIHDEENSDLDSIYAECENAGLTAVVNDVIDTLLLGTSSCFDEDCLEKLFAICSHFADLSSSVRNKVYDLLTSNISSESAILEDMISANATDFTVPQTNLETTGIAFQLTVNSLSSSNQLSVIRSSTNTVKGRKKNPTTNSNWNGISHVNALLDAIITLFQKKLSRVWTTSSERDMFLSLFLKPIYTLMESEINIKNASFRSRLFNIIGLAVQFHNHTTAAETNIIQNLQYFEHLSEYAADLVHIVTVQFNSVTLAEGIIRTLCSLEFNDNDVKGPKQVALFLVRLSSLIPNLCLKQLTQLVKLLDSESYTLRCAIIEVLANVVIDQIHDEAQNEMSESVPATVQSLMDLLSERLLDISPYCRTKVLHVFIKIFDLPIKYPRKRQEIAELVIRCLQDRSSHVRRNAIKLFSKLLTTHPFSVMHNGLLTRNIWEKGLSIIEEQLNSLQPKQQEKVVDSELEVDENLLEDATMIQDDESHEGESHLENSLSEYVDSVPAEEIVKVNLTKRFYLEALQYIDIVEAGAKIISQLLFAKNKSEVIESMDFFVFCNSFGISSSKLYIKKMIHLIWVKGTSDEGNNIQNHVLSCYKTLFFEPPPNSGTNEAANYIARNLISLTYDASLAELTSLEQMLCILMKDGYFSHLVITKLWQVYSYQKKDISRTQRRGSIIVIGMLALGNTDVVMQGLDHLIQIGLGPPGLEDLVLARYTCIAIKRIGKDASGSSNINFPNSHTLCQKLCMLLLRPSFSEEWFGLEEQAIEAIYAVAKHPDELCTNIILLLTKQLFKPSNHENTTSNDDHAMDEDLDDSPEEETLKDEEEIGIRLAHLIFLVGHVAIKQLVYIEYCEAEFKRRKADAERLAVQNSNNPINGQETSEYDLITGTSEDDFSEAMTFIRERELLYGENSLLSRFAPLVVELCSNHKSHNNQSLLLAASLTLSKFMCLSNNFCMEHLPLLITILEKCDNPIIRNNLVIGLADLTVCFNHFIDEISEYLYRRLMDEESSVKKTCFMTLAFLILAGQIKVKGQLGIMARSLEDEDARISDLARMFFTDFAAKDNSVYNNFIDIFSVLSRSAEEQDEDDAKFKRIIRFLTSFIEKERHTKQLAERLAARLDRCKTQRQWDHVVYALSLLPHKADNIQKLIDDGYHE

T3: GAL4-BD-Cnd1-K658E (Schizosaccharomyces pombe (fission yeast)) (UniProt O94679)
T3 sequence: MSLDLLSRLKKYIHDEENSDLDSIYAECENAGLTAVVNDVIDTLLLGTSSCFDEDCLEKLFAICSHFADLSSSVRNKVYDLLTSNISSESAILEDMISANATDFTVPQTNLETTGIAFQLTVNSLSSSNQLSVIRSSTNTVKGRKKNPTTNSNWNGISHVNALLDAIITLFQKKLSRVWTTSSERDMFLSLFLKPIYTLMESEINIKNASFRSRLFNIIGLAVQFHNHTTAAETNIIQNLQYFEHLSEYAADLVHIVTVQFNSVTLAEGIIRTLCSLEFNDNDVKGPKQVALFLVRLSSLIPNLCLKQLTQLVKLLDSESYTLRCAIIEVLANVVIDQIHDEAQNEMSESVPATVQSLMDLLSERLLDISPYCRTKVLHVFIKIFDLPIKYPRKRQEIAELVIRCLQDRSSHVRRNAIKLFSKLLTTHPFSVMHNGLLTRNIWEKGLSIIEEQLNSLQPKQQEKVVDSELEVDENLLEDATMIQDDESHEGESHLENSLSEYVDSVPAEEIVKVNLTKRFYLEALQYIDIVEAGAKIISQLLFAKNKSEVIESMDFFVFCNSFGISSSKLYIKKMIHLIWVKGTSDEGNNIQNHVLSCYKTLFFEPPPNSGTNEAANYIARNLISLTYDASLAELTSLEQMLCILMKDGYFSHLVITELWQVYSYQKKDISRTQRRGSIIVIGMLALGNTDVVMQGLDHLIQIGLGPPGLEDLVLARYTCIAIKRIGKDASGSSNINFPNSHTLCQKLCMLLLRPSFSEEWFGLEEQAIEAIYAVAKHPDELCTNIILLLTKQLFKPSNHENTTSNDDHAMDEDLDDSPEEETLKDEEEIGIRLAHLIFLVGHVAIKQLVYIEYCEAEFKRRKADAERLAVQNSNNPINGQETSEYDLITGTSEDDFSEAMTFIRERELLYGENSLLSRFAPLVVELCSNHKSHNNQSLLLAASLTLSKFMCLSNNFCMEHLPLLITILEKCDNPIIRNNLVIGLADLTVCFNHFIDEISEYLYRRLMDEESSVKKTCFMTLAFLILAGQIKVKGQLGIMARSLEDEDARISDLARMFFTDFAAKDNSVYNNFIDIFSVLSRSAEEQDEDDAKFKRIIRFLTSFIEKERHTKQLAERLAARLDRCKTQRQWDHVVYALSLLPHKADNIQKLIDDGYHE

T4: GAL4-BD-Cnd1-m1 (Cnd1 with the cnd1-m1 mutations) (Schizosaccharomyces pombe (fission yeast)) (UniProt O94679)
T4 sequence: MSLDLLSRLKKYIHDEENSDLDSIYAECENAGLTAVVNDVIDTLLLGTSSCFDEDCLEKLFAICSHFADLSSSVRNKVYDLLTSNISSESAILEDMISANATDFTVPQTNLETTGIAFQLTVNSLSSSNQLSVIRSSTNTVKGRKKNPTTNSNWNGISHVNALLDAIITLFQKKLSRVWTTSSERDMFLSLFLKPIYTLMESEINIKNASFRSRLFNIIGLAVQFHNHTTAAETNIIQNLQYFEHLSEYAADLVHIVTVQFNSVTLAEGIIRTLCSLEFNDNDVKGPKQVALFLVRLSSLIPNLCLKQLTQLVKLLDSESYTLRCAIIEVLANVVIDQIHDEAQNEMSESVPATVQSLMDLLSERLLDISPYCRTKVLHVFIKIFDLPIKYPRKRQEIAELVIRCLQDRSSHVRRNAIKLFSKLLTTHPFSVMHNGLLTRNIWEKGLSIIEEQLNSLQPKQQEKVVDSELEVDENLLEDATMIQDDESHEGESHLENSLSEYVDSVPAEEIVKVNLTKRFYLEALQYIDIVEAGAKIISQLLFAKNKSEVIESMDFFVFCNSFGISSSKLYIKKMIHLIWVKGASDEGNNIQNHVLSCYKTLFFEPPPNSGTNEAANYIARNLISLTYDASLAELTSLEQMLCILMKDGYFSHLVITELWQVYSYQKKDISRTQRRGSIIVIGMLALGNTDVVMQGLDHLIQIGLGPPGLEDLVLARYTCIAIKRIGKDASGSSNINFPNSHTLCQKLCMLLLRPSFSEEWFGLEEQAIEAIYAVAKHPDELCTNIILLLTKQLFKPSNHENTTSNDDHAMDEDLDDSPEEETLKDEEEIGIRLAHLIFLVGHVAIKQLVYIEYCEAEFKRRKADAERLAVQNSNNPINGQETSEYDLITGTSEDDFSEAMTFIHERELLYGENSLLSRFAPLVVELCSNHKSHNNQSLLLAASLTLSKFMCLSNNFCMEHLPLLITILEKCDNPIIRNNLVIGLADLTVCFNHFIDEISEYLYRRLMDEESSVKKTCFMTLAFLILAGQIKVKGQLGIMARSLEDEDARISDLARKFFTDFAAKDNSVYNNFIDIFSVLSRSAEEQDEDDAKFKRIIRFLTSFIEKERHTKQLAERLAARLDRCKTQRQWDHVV


Assays:
Experiment in all cases: two-hybrid
[1] = target: CAP-D2 (human condensin I subunit), two-hybrid fusion (human) (UniProt Q15021)
[2] = target: T1, CAP-D3 (human condensin II subunit), two-hybrid fusion (human)
[3] = target: T2, GAL4-BD-Cnd1 (Cnd1 condensin subunit, wild type, fused to GAL4-BD) (Schizosaccharomyces pombe (fission yeast))
[4] = target: T3, GAL4-BD-Cnd1-K658E (Schizosaccharomyces pombe (fission yeast))
[5] = target: T4, GAL4-BD-Cnd1-m1 (Cnd1 with the cnd1-m1 mutations) (Schizosaccharomyces pombe (fission yeast))

binding [1] | binding [2] | binding [3] | binding [4] | binding [5] | Binder
no binding | binds | – | – | – | Med4 (human Pmc4), two-hybrid fusion (protein, UniProt Q9NPJ6 1-270) MAASSSGEKEKERLGGGLGVAGGNSTRERLLSALEDLEVLSRELIEMLAISRNQKLLQAGEENQVLELLIHRDGEFQELMKLALNQGKIHHEMQVLEKEVEKRDSDIQQLQKQLKEAEQILATAVYQAKEKLKSIEKARKGAISSEEIIKYAHRISASNAVCAPLTWVPGDPRRPYPTDLEMRSGLLGQMNNPSTNGVNGHLPGDALAAGRLPDVLAPQYPWQSNDMSMNMLPPNHSSDFLLEPPGHNKENEDDVEIMSTDSSSSSSESD
– | – | binds | binds | binds | GAL4-AD-Cnd2 (Cnd2 condensin subunit fused to GAL4-AD) (protein, UniProt Q9Y7R3 1-742) MKRASLGGHAPVSLPSLNDDALEKKRAKENSRKQRELRRSSALHSITPRRESLNNSSPFNSSHQVPVLSNFEEWIKLATDNKINSTNTWNFALIDYFHDMSLLRDGEDINFQKASCTLDGCVKIYTSRIDSVATETGKLLSGLANDSKVLQQTEEGEDAENDDEDLQKKKERKRAQRSVKTLVKDFESIRAKKFELECSFDPLFKKMCADFDEDGAKGLLMNHLCVDQHGRIVFDSSDTVIKDLENKDVEAESQEAVVAAPIESHDTEMTNVHDNISRETLNGIYKCYFTDIDQLTICPSLQGFEFDSKGNLDVSLLKSLSDEVNMITTTSLVDNTMEKTDADAASLSSDSDGEEGHIVHALEEMAYDEENPYVDVVPKAMDESENPDFGVDTEVNMADGSTMNENYSIISTAAANGVYEYFDKSMKKNWAGPEHWRIQALRKNINNASTVFNSSNTAESSDNVSRSLSSTERKKRRELDNAIDFLQEVDVEALFTPATSSLKLPKSHWKRHNRCLLPDDYQYDSKRLLQLFLKPKMSVLPNADGEGQLQLNKALDDENDLDGIQPHGFDSDGSDNVDEGIPPYGFGDSDSPKQTPLLTPPSSSGFGDNLLLTARLAKPDMLNYAKRAKKVDVRVLKEKLWKCLDLENTIKENSINSHIEGSEMESEETNMPVKSFFSTVNQLEETYEKKELKDISTSFAFICVLHLANEHNLELTSNEDFSDVFIRPGPNLTTLEALENDV
